# Experimental data: PubChem BioAssay AID1508597 (Cure First, 2020)
# Assay: 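Survival screen with siRNA in ovarian cancer cells derived from patients, with or without rucaparib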 (primary screen)
# Cells: human ovarian carcinoma lines grown from tumours: OCI-P5x (papillary serous) and OCI-C5x (clear cell)
# Knock-down reagent: siRNA pool against human genes, 1.25 pmol siRNA per well
# Time to read-out: 72 h or 96 h, depending on the cell culture
# Conditions: rucaparib 20 µM (about IC30) or vehicle, present until read-out
# Rucaparib or vehicle: Vehicle
# Cell line: OCI-P5x (serous)
# Detection: 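ATP luminescence measured at 72 or 96 h according to the culture, then normalised and expressed as percent viability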
# Reading the numbers: viability, normalised: higher = more viable cells remaining
# Hit rule: 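a well counts as a hit if its normalised viability is under 80 percent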
# Calls: active = viability under 80%; inactive = viability 80% or more
# Shown is a random part of the about 2,100 reagents, in one setting of the screen. 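Calls flag viability under 80% in either arm, not effects specific to rucaparib; the reference for percent is not stated.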 Unmarked entries are inactive. A reagent listed more than once was tested more than once; the source does not tell the runs apart. The record does not give: the 100% reference.
gene,technical replicate,"viability, normalised (%)"
MARK3 (microtubule affinity regulating kinase 3),1,86.1
MARK3 (microtubule affinity regulating kinase 3),2,94.9
MARK3 (microtubule affinity regulating kinase 3),3,83.4
GADD45G (growth arrest and DNA damage inducible gamma),1,77.9 (active)
GADD45G (growth arrest and DNA damage inducible gamma),2,84.4
GADD45G (growth arrest and DNA damage inducible gamma),3,79.4 (active)
KPNA4 (karyopherin subunit alpha 4),1,80.7
KPNA4 (karyopherin subunit alpha 4),2,82.7
KPNA4 (karyopherin subunit alpha 4),3,80.6
DDA1 (DET1 and DDB1 associated 1),1,59.6 (active)
DDA1 (DET1 and DDB1 associated 1),2,65.1 (active)
DDA1 (DET1 and DDB1 associated 1),3,66.8 (active)
DPF1 (double PHD fingers 1),1,55 (active)
DPF1 (double PHD fingers 1),2,60.3 (active)
DPF1 (double PHD fingers 1),3,61.3 (active)
APOE (apolipoprotein E),1,67.4 (active)
APOE (apolipoprotein E),2,67.2 (active)
APOE (apolipoprotein E),3,72.5 (active)
ACTG1 (actin gamma 1),1,69.9 (active)
ACTG1 (actin gamma 1),2,73.5 (active)
ACTG1 (actin gamma 1),3,63.5 (active)

Already shown: an excerpt of the list.
gene,technical replicate,"viability, normalised (%)"
DPF1 (double PHD fingers 1),1,55 (active)
DPF1 (double PHD fingers 1),2,60.3 (active)
DPF1 (double PHD fingers 1),3,61.3 (active)
APOE (apolipoprotein E),1,67.4 (active)
APOE (apolipoprotein E),2,67.2 (active)

Additional results follow:
gene,technical replicate,"viability, normalised (%)"
MAP2K7 (mitogen-activated protein kinase kinase 7),1,75.3 (active)
MAP2K7 (mitogen-activated protein kinase kinase 7),1,68.2 (active)
MAP2K7 (mitogen-activated protein kinase kinase 7),2,58.4 (active)
MAP2K7 (mitogen-activated protein kinase kinase 7),2,80.7
MAP2K7 (mitogen-activated protein kinase kinase 7),3,39.8 (active)
MAP2K7 (mitogen-activated protein kinase kinase 7),3,80.7
CDK7 (cyclin dependent kinase 7),1,54.6 (active)
CDK7 (cyclin dependent kinase 7),1,96.7
CDK7 (cyclin dependent kinase 7),2,103
CDK7 (cyclin dependent kinase 7),2,66.5 (active)
CDK7 (cyclin dependent kinase 7),3,78.5 (active)
CDK7 (cyclin dependent kinase 7),3,103
CACNA1G (calcium voltage-gated channel subunit alpha1 G),1,86.9
CACNA1G (calcium voltage-gated channel subunit alpha1 G),2,89
CACNA1G (calcium voltage-gated channel subunit alpha1 G),3,75.3 (active)
INO80B (INO80 complex subunit B),1,82.5
INO80B (INO80 complex subunit B),2,87.2
INO80B (INO80 complex subunit B),3,83.8
UIMC1 (ubiquitin interaction motif containing 1),1,72.1 (active)
UIMC1 (ubiquitin interaction motif containing 1),1,80.6
UIMC1 (ubiquitin interaction motif containing 1),2,65.6 (active)
UIMC1 (ubiquitin interaction motif containing 1),2,87.7
UIMC1 (ubiquitin interaction motif containing 1),3,79.6 (active)
UIMC1 (ubiquitin interaction motif containing 1),3,59.3 (active)
ATF7IP2 (activating transcription factor 7 interacting protein 2),1,54.8 (active)
ATF7IP2 (activating transcription factor 7 interacting protein 2),2,71.9 (active)
ATF7IP2 (activating transcription factor 7 interacting protein 2),3,81.2
FOXS1 (forkhead box S1),1,82.7
FOXS1 (forkhead box S1),2,86.8
FOXS1 (forkhead box S1),3,83.7
PAK3 (p21 (RAC1) activated kinase 3),1,57.8 (active)
PAK3 (p21 (RAC1) activated kinase 3),2,76.5 (active)
PAK3 (p21 (RAC1) activated kinase 3),3,56.4 (active)
"CKM (creatine kinase, M-type)",1,78.2 (active)
"CKM (creatine kinase, M-type)",2,95.3
"CKM (creatine kinase, M-type)",3,86
